Measured values: patent publication US6706704B2 (priority 2001, dated 2004)
Some entries share one result that the patent states for a list of compounds.

Test system: blood pressure
Test: Effect of D1 agonists on blood pressure
Assay type: in vivo, cat
Settings: highest effective doses (3 mg/kg)

| Compound | duration of effect on blood pressure |
| --- | --- |
| Oc1cc2c(cc1O)C(c1ccccc1)CNCC2 (racemic) [(±)-SKF-38393, (±)-1-phenyl-2,3,4,5-tetrahydro-(1H)-3-benzazepine-7,8-diol] | not more than 30 seconds |
| Br.C=CCN1CCc2c(cc(O)c(O)c2Cl)C(c2ccccc2)C1 (racemic) [(±)-chloro-APB, (+/−)6-chloro-7,8-dihydroxy-3-allyl-1-phenyl-2,3,4,5-tetrahydro-1H-3-benzazepine hydrobromide] | not more than 30 seconds |
